Data as given in PubChem BioAssay AID1053208 (Peter MacCallum Cancer Centre, 2014)
Shown is one part, drawn at random, of about 17,000 reagents. 788 of all reagents (4.7%) count as active. 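Calls rest on z-score classes alone; an extra cut-off of viability at most 70% of control was not applied to them.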 A number with no mark means an inactive call. Not all columns of the deposit are shown.

- Screen: 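Synthetic lethal interactions between gene loss and doxorubicin in osteosarcoma cells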 (primary screen)
- Cell system: mouse osteosarcoma cells, early-passage culture from an engineered mouse model of fibroblastic bone tumour
- Reagents: siRNA pool against mouse genes, 40 nM
- Time to read-out: about 120 h (48 h before drug, then 72 h with drug)
- Challenge: doxorubicin 100 nM for 72 h, roughly 30-40% inhibitory dose
- Measured: 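Luminescent ATP signal taken as viability with or without 100 nM doxorubicin for 72 h; mean of two wells set against non-targeting siRNA and turned into robust z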
- Scale: viability z-score with doxorubicin: higher = more viable cells under doxorubicin; viability z-score without drug: higher = more viable cells with knock-down alone
- Active means: 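Called active if knock-down leaves viability unchanged without drug (z within -2 to 2) but lowers it with doxorubicin (z at or under -2)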

The first 5 entries, to show the layout:
gene knocked down | PubChem SID | combined z-score class | viability z-score with doxorubicin | viability z-score without drug
Or51f2 | SID152277529 | no change with or without drug | -0.9 | -1.85
Ddx47 | SID152283398 | no change with or without drug | 0.11 | -0.84
Thoc5 | SID152276191 | high cell count with doxorubicin only | 2.02 | 1.52
Pla2g1b | SID152270988 | no change with or without drug | -1.12 | 0.67
Lrrc66 | SID152303851 | no change with or without drug | 0.56 | -0.34

Results, from the first entry:
gene knocked down | PubChem SID | combined z-score class | viability z-score with doxorubicin | viability z-score without drug
Or51f2 | SID152277529 | no change with or without drug | -0.9 | -1.85
Ddx47 | SID152283398 | no change with or without drug | 0.11 | -0.84
Thoc5 | SID152276191 | high cell count with doxorubicin only | 2.02 | 1.52
Pla2g1b | SID152270988 | no change with or without drug | -1.12 | 0.67
Lrrc66 | SID152303851 | no change with or without drug | 0.56 | -0.34
Magt1 | SID152288153 | no change with or without drug | 0.67 | 0.17
Pskh1 | SID152276069 | no change with or without drug | -1.01 | 0.17
Msantd2 | SID152264421 | no change with or without drug | 0.22 | -0.34
Akr1c12 | SID152287636 | no change with or without drug | -0.67 | -0.51
Morf4l1 | SID152340436 | no change with or without drug | -1.46 | -1.52
Nt5c3 | SID152327533 | no change with or without drug | 0.79 | -0.17
Wdr6 | SID152282178 | no change with or without drug | 0.34 | 1.18
Lin7c | SID152265847 | no change with or without drug | -1.46 | -0.84
Mrpl38 | SID152273351 | low cell count with doxorubicin only (active) | -3.04 | -0.84
Ilk | SID152287794 | no change with or without drug | -1.35 | -0.67
Jazf1 | SID152289368 | no change with or without drug | -0.56 | 0.84
Sln | SID152336014 | low cell count with doxorubicin only (active) | -2.7 | -1.18
Ogdh | SID152311533 | no change with or without drug | 0.9 | 0.84
Zfp866 | SID152278713 | no change with or without drug | 0.34 | -0.51
Bltp1 | SID152303573 | no change with or without drug | 0.79 | -0.84
Bltp1 | SID152339763 | no change with or without drug | -0.67 | -1.35
Adamtsl1 | SID152303177 | no change with or without drug | -0.9 | 0.67
Trim62 | SID152319170 | low cell count with doxorubicin only (active) | -2.14 | -1.69
Casd1 | SID152276205 | no change with or without drug | -0.45 | -0.51
Pick1 | SID152330953 | no change with or without drug | 0.9 | 1.18
Dnajc24 | SID152291276 | no change with or without drug | -0.56 | -0.17
Faim2 | SID152272928 | no change with or without drug | -0.67 | -0.51
Nptn | SID152292478 | high cell count without drug only | 1.35 | 2.19
Slc30a5 | SID152315382 | no change with or without drug | 0.22 | -0.51
Calb2 | SID152303468 | no change with or without drug | 0.56 | 0.51
Anxa10 | SID152276153 | no change with or without drug | 0.45 | -0.17
Kcna6 | SID152288238 | no change with or without drug | 0.45 | 0.67
Plscr1 | SID152325214 | no change with or without drug | 0.67 | -0.17
Id3 | SID152337757 | no change with or without drug | -1.46 | -1.52
Casp4 | SID152289423 | no change with or without drug | 1.35 | 1.69
H2-D1 | SID152291161 | high cell count with and without drug | 2.02 | 2.53
Tbx6 | SID152341403 | no change with or without drug | -1.24 | -0.51
Abca12 | SID152288693 | no change with or without drug | -0.67 | -0.67
Gm20735 | SID152273690 | low cell count with doxorubicin only (active) | -2.02 | -1.35
Rce1 | SID152318966 | no change with or without drug | -0.34 | 0.34
Or12k7 | SID152287628 | no change with or without drug | 0.22 | 0.17
Nop16 | SID152336915 | no change with or without drug | 0 | 0.17
Or52d3 | SID152298674 | no change with or without drug | 1.91 | 1.35
Rabif | SID152264755 | no change with or without drug | -0.34 | 0.17
Apba3 | SID152342433 | no change with or without drug | 0.9 | 0.84
Pik3cd | SID152300936 | no change with or without drug | -1.12 | -0.17
Aldh5a1 | SID152310389 | no change with or without drug | 0.22 | 0.17
Cntn3 | SID152317265 | no change with or without drug | 0.9 | 1.18
Kcnh8 | SID152261515 | no change with or without drug | 0 | 0.51
Il7 | SID152320885 | no change with or without drug | -0.9 | 0.84
